Among the data in publication PMC3271067 are binding values, retold here.

For the assay, the target named is T1, Kar3-3HA (S. cerevisiae) (UniProt P17119).
T1 sequence: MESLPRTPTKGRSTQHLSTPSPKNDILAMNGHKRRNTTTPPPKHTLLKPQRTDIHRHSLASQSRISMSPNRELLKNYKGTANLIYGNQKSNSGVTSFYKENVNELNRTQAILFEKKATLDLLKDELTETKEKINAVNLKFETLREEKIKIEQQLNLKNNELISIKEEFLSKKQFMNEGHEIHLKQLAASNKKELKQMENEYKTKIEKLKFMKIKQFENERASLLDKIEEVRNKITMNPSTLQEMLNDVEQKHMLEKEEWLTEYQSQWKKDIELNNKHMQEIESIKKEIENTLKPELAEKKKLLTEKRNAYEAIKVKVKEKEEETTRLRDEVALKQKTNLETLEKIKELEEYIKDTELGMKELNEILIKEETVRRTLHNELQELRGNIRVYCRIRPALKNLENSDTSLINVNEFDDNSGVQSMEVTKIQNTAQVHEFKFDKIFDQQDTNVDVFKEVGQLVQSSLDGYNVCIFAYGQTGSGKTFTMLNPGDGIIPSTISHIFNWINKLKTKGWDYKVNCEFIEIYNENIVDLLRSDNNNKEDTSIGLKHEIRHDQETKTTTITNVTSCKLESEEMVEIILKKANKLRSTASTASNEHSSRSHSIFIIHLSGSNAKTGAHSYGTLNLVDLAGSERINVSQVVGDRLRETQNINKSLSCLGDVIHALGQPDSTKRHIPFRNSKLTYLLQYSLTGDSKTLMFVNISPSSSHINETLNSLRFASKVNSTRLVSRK
The assay is described as follows: co-IP; as a1 (IP with anti-HA antibody), but cells carry the PGALCIK1-CC plasmid and overexpress CIK1-CC (galactose for 3 hrs).

Results are given in words; binding and its absence hold for the method and conditions named. Binding seen in cells or lysates may run through a third protein. Binding calls can cover weak binding; strength is not graded here.

Consider “Cik1-CC (coiled-coil domain of Cik1, expressed from the PGALCIK1-CC plasmid) (S. cerevisiae) (domain or fragment)”, for which the binding entry is “binds”.
